Laboratory results from paper PMC4232348.

Chains of the proteins cited; added tags and fusions are not shown. Lines headed by an entry give the natural chain unless they say otherwise; changes in a name come on top.
UniProt O18333: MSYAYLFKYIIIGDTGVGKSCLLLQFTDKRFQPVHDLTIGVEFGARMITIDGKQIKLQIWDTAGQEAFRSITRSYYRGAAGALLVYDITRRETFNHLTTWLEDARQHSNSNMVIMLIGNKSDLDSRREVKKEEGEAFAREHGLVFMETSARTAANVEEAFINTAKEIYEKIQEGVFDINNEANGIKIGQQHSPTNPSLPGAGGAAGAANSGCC
UniProt Q9W060: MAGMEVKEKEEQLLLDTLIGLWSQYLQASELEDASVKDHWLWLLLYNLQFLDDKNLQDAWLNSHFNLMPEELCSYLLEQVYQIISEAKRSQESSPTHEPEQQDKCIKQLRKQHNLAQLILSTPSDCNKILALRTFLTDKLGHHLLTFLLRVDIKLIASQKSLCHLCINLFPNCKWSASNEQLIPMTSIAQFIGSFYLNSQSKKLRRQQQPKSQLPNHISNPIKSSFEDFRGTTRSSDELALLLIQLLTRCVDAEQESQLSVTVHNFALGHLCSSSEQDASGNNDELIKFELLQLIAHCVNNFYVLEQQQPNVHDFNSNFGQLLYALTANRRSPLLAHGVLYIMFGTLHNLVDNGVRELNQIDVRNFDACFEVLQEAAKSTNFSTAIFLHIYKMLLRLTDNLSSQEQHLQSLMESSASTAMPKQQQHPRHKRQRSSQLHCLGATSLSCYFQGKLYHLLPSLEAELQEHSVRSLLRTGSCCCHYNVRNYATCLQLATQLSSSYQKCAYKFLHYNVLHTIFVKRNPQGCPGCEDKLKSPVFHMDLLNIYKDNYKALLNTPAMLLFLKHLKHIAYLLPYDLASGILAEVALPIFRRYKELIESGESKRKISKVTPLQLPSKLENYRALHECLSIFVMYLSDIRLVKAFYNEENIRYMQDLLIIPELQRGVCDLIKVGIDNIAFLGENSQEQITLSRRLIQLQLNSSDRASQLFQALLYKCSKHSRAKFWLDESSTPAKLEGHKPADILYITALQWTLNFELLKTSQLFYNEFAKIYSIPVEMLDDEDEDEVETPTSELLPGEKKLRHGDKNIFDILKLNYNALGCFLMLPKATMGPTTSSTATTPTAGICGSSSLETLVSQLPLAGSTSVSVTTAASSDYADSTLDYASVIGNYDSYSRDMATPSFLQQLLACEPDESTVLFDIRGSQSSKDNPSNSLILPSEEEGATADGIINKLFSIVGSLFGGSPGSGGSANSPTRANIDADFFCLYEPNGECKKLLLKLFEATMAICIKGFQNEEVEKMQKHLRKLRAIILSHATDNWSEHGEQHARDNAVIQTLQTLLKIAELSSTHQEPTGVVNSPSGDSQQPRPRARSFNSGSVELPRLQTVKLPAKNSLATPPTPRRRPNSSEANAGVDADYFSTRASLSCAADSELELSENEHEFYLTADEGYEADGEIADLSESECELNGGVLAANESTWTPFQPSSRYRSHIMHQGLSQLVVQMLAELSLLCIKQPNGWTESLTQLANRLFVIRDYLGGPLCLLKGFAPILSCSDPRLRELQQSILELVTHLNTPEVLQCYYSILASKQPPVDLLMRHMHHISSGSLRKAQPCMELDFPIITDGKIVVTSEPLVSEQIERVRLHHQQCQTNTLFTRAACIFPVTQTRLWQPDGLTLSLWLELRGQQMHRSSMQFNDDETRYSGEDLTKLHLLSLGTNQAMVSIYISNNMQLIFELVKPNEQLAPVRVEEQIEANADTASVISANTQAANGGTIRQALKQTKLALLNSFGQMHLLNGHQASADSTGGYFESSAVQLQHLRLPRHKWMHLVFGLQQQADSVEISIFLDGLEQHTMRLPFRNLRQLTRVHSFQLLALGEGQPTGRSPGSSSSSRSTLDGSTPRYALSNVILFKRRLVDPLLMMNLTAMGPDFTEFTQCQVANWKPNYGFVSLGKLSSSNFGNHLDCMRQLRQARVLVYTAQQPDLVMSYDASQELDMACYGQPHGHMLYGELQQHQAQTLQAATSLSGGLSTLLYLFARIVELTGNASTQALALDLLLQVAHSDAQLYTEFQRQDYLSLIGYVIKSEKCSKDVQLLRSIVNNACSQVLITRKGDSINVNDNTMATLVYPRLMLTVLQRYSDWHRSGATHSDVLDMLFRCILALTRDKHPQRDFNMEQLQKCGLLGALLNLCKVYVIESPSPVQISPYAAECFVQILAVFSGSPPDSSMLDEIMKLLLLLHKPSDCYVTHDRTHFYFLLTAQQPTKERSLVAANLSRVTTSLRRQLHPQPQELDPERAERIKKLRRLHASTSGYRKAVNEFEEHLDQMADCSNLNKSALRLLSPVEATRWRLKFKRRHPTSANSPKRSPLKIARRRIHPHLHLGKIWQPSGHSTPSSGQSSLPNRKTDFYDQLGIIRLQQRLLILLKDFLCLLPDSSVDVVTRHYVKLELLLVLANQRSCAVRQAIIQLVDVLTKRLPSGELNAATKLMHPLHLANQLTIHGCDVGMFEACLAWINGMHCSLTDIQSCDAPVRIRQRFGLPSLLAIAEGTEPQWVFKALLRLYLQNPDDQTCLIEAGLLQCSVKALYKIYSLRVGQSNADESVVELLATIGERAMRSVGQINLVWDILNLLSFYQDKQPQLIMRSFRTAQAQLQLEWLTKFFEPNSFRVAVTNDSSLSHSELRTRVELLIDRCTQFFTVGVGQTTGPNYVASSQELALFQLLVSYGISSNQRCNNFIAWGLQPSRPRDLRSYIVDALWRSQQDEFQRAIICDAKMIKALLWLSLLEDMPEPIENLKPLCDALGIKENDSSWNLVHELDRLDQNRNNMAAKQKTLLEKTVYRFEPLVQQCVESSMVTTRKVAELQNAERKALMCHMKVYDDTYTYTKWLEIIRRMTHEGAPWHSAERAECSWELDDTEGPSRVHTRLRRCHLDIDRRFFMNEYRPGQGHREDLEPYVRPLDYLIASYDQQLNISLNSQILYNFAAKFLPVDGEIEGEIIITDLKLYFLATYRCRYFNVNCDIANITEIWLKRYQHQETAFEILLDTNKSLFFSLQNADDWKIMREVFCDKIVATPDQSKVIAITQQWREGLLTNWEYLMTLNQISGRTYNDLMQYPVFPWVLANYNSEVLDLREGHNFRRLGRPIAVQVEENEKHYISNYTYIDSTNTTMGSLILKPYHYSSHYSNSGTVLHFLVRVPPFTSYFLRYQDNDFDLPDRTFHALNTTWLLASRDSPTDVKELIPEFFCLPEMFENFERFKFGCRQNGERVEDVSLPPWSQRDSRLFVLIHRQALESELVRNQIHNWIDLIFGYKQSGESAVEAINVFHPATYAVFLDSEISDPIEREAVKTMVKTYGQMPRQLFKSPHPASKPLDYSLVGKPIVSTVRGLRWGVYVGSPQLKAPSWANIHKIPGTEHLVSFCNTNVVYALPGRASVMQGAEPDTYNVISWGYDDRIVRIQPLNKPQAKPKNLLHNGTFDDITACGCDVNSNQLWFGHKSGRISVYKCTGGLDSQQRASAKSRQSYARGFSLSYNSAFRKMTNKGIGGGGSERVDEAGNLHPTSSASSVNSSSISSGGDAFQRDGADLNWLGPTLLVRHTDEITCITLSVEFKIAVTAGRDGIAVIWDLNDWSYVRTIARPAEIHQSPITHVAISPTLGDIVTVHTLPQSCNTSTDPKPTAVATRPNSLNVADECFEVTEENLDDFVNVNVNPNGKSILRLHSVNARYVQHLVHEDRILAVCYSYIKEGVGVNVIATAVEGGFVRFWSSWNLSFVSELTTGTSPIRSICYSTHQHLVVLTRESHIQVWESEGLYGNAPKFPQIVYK

Columns and labels:
[1] = biological target: GST-Rab2(Q65L), GTP-locked Drosophila Rab2 (Drosophila melanogaster) (UniProt O18333); experiment: affinity purification with mass spectrometry; GST-Rab (Q→L, GTP-locked) on glutathione Sepharose; lysates of Drosophila S2 cells; eluates on SDS gels, tandem MS; hits told for both data sets (CHAPS lysis and detergent-free lysis) or without saying which data set; only the target purified
[2] = biological target: GST-Rab2(Q65L), GTP-locked Drosophila Rab2 (Drosophila melanogaster) (UniProt O18333); experiment: affinity purification with mass spectrometry; GST-Rab (Q→L, GTP-locked) on glutathione Sepharose; S2 cells lysed in the detergent CHAPS; gel lanes above the GST-Rab (∼45–50 kDa) analysed; only the target purified
[3] = biological target: GST-Rab2(Q65L), GTP-locked Drosophila Rab2 (Drosophila melanogaster) (UniProt O18333); experiment: affinity purification with mass spectrometry; GST-Rab (Q→L, GTP-locked) on glutathione Sepharose; lysates of Drosophila S2 cells; eluates on SDS gels, tandem MS; hits told for both data sets (CHAPS lysis and detergent-free lysis) or without saying which data set; only the target purified; remark: listed apart in the source

binding [1]: binds
Molecule: Mauve (CG42863), BEACH-domain family member (from UniProt Q9W060 1-3535)

binding [2]: binds
B1: Vps41 (protein, UniProt Q7PL76 1-841)
chain: MAKALPLISCDSWADSINEEDVEPKFKYHRLANDLKYMLNADVITCSAVHLKFLIFGTFRGRVCIFDHQGNSVYSNLSASERHTHQVAVNNIDVDHKGEYVATCSDDGKVNITGLFSSDNNHSLSFGKFIKVVSLEPDSKAHIKRFVVGDDKLILYERNLLKKLKPVELCSVEGSVLSICWHGNFIAWASHIGVRVYDLNERCSLGLIKWEVPPQERLENFRCHLRWSNKHTLLIGWVDTIRVCVIRKRNSIEASTGNLPVYIVDPISTFQTTFYVCGLAPLSAKQLVVLGFRKEKSSCFKALRPVLCVIEYKMNNSEEICTDSLTLRGFEEYTVNDYSLGGIIEENRFYIVAPKDIVVASLIETDDRIEWLIKHSKFEEAMELISANGGNVPVLSVAKLYINHLLALKKYDDAAKLCLRMLGNDKVLWEEEVFKFVKCQQLRSVSAYLPTSDECKLDPHVYEMVLYEFLKFDVCGFLNLIKEWPSHLYDGLAVINAIHDNFRKHYANQLLESLALLYSYQGDFESALRMYLKLQNKDVFQLIRRYELYDVISKLIIPLIQLDRDCAFEILLDKKKIKTEIVVHQLEHNQEYLYWYLDSLLKKDPSNVFQKKLISLYAIFDRNKLLPFLKRSKDYDIQEALVICKQENFYPEIVYLLGCMGGVEASEALNIIIHRIRDIEMAIEFCKEHDDSDLWNALINEFSKHPEIVTKVLDGIVDYFSPAVVVGKIKMGQNIPNLRQSLIKMLRHYNLQGEILSSAQQIQLNDYFEIHSEIVTTQRRGQQVSYEQLCSLCHRPVLMAGTHLYCIIRLECGHVYHKPCIQGELLKNCNECNLWKLTVGK

binding [3]: binds
B2: BicaudalD (protein, UniProt P16568 1-782)
chain: MSSASNNGPSADQSVQDLQMEVERLTRELDQVSSASAQSAQYGLSLLEEKSALQQKCEELETLYDNTRHELDITQEALTKFQTSQKVTNKTGIEQEDALLNESAARETSLNLQIFDLENELKQLRHELERVRNERDRMLQENSDFGRDKSDSEADRLRLKSELKDLKFRETRMLSEYSELEEENISLQKQVSSLRSSQVEFEGAKHEIRRLTEEVELLNQQVDELANLKKIAEKQMEEALETLQGEREAKYALKKELDGHLNRESMYHISNLAYSIRSNMEDNASNNSDGEEENLALKRLEADLSTELKSPDGTKCDLFSEIHLNELKKLEKQLESMESEKTHLTANLREAQTSLDKSQNELQNFMSRLALLAAHVDALVQLKKQIDVKEQGKEGGQKKDELEQQLRALISQYANWFTLSAKEIDGLKTDIAELQKGLNYTDATTTLRNEVTNLKNKLLATEQKSLDLQSDVQTLTHISQNAGQSLGSARSTLVALSDDLAQLYHLVCTVNGETPTRVLLDHKTDDMSFENDSLTAIQSQFKSDVFIAKPQIVEDLQGLADSVEIKKYVDTVSDQIKYLKTAVEHTIDMNKHKIRSEGGDALEKVNTEEMEELQEQIVKLKSLLSVKREQIGTLRNVLKSNKQTAEVALTNLKSKYENEKIIVSDTMSKLRNELRLLKEDAATFSSLRAMFAARCEEYVTQVDDLNRQLEAAEEEKKTLNQLLRLAVQQKLALTQRLEEMEMDREMRHVRRPMPAQRGTSGKSSFSTRPSSRNPASSNANPF

binding [3]: binds
B3: p115, the binding partner of GM130 (protein, UniProt Q9W3N6 1-836)
chain: MEFLKSGIKTVLGSTEPGQQPSAAETVEKLVDRVYSSTLLEDRRDACRALKALSRKYRIEVGAQGMPPLVQVLQNDGQDAEIISYALDTLCNVVTSEEFDEEADNPTVSVNVGEQFTEMFIKTPEHVTLVMGYLDEYDFRVRRAAIQLITSLISNKTRELQDLILVSPMGVSKLMDLLTDSREVIRNDVLLLLIELTKGNSNIQKIVAFENAFDRLFEIVREEGCSDGGIVVEDCLILLLNLLKNNSSNQQFFKEGSYIQRLSPMFELSQDAEEVGWSPQKVSNFHCLLQVVRALVTPSNQQQVVAACQRVMQKSRLLHALCEILMSSGVPADILTETINAVAEVVRGDRDNQDELGRVMAPSSPPRPAIVVLLMSMINEKQLLALRCAVLYCFECFLYRNADGQRAVVQTLLPSSASDVSALSTGQLLCTGLFSTDALANWFSAVALMHSLVENVALKEELLRVLLATPGGQKPITLLEQCTNLMQQERYRLQSKVGLLMLLSLWLAHCPGAVKALLETQGTMAYLTAQLCSNEHDEREFLVQGMCAFLMGLCIQFNDNSLPGQKREDISQLIIKRIGQESFCSKLAEVSRHEAYSRACKQAQIRAKSAGELLLDFEYCKLYKGLEALIAKLVSGFDVDGIELTELTLSSEASALVSQYKGIIRGMDAQIQALQQSSKELEQENAELKEKLGEEQSLKAQLLDQNTLLKAQLGASTGQVQSAQGAEATPPNEEELNAARYQANMYFAENIRLTKELETLRQQLSAEKQSADAAQDSLAAMQKDQEDLLELLADQEAKLTRYEEAGSTNTLPTSNVAPSVPAAGGGSPIPSGTASR

These are yes or no findings as the source states them, for the method shown. In cells and extracts the contact can be indirect. These calls come from enrichment with a bait or labelling near it, and not all partners need be listed. One block for each molecule: values may come before it.
